PubChem BioAssay AID1259254 – NCATS, 2017

Screen: 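Gene knock-downs that lead to re-replication, shown by excess G2 DNA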 (primary screen)
Cells: human HCT116 colorectal cancer cells
Reagent: single siRNA against human genes
Timing: 3 days
Detection: 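Nuclei stained with Hoechst and imaged; cell-cycle phase assigned by DNA content; G2 share scaled per plate, non-targeting siRNA 0%, GMNN siRNA 100%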
Scale: G2 robust z-score and G2 cells, % of GMNN control: higher = more G2 cells, more excess DNA replication; raw share of cells in G2: higher = larger share of cells with G2 DNA content
Rule for the call: 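Active siRNAs have a G2 robust z of 5 or more median absolute deviations over the median, which in these data means about 38% or higher of GMNN control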
Shown is one part, drawn at random, of about 59,000 reagents tested. About 1,550 of all reagents (2.6%) count as active. 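G2 share is only a proxy for re-replication; each gene was hit by three separate siRNAs, and active genes were retested.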 The raw values are shown without normalisation. The numbers tell different reagents against one gene apart. Not stated in the record: the amount of reagent.

| gene | reagent no. | G2 robust z-score | G2 cells, % of GMNN control | raw share of cells in G2 (%) | outcome |
| --- | --- | --- | --- | --- | --- |
| RPL29P31 | 1 | -0.0734 | 2.45 | 4.53 | inactive |
| RPL29P31 | 2 | 0.703 | 7.91 | 6.1 | inactive |
| RPL29P31 | 3 | -0.759 | -2.37 | 2.55 | inactive |
| LARP1B | 1 | -0.896 | -3.34 | 3.24 | inactive |
| LARP1B | 2 | -0.445 | -0.163 | 4.07 | inactive |
| LARP1B | 3 | 0.575 | 7.01 | 5.37 | inactive |
| BCL9 | 1 | 1.84 | 15.9 | 12.8 | inactive |
| BCL9 | 2 | 1.25 | 11.8 | 8.41 | inactive |
| BCL9 | 3 | 1.63 | 14.4 | 9.18 | inactive |
| GRAMD1B | 1 | 0.0523 | 3.34 | 5.66 | inactive |
| GRAMD1B | 2 | -0.928 | -3.56 | 2.76 | inactive |
| GRAMD1B | 3 | 2.43 | 20.1 | 9.39 | inactive |
| KIF13A | 1 | -0.907 | -3.42 | 4.23 | inactive |
| KIF13A | 2 | -0.807 | -2.71 | 3.39 | inactive |
| KIF13A | 3 | -0.543 | -0.85 | 3.92 | inactive |
| DLK2 | 1 | 2.53 | 20.8 | 10.2 | inactive |
| DLK2 | 2 | -0.435 | -0.0953 | 3.13 | inactive |
| DLK2 | 3 | 0.0323 | 3.19 | 4.65 | inactive |
| PCK1 | 1 | 0.0105 | 3.04 | 4.24 | inactive |
| PCK1 | 2 | 0.397 | 5.76 | 7.09 | inactive |
| PCK1 | 3 | 3.67 | 28.8 | 16.1 | inactive |
| AMELY | 1 | 0.702 | 7.9 | 9.01 | inactive |
| AMELY | 2 | 4.03 | 31.3 | 15.6 | inactive |
| AMELY | 3 | -0.52 | -0.693 | 3.25 | inactive |
| ORM1 | 1 | -0.111 | 2.18 | 3.95 | inactive |
| ORM1 | 2 | 0.892 | 9.24 | 8.5 | inactive |
| ORM1 | 3 | 7.94 | 58.8 | 27.4 | active |
| EIF2B1 | 1 | -0.158 | 1.85 | 5.91 | inactive |
| EIF2B1 | 2 | -0.439 | -0.119 | 5.22 | inactive |
| EIF2B1 | 3 | 6.27 | 47 | 20.4 | active |
| EIF1AX | 1 | 1.84 | 15.9 | 11 | inactive |
| EIF1AX | 2 | 0.246 | 4.7 | 5.33 | inactive |
| EIF1AX | 3 | 7.28 | 54.2 | 25.9 | active |
| TEX55 | 1 | 1.44 | 13.1 | 7.65 | inactive |
| TEX55 | 2 | 0.405 | 5.81 | 5.78 | inactive |
| TEX55 | 3 | 2.85 | 23 | 10 | inactive |
| SHCBP1L | 1 | -0.559 | -0.968 | 3.79 | inactive |
| SHCBP1L | 2 | -0.177 | 1.72 | 3.97 | inactive |
| SHCBP1L | 3 | -0.0414 | 2.68 | 3.22 | inactive |
| LRRC56 | 1 | -1.07 | -4.59 | 0.476 | inactive |
| LRRC56 | 2 | 0.155 | 4.06 | 5.72 | inactive |
| LRRC56 | 3 | 1.39 | 12.8 | 7.14 | inactive |
| CFAP90 | 1 | 0.394 | 5.74 | 6.34 | inactive |
| CFAP90 | 2 | -0.355 | 0.471 | 3.25 | inactive |
| CFAP90 | 3 | 1.68 | 14.8 | 7.95 | inactive |
| HSD17B8 | 1 | -0.777 | -2.5 | 3.33 | inactive |
| HSD17B8 | 2 | 0.674 | 7.71 | 8.85 | inactive |
| HSD17B8 | 3 | -0.133 | 2.03 | 5.15 | inactive |
| APBB3 | 1 | -0.12 | 2.12 | 6.62 | inactive |
| APBB3 | 2 | -0.227 | 1.37 | 4.29 | inactive |
| APBB3 | 3 | -1.46 | -7.29 | 3.61 | inactive |
| CELF3 | 1 | 5.44 | 41.2 | 22.9 | active |
| CELF3 | 2 | -0.00359 | 2.94 | 4.87 | inactive |
| CELF3 | 3 | -0.82 | -2.8 | 3.22 | inactive |
| ARK2N | 1 | 0.581 | 7.06 | 6.19 | inactive |
| ARK2N | 2 | -0.104 | 2.24 | 3.6 | inactive |
| ARK2N | 3 | 1.04 | 10.3 | 6.64 | inactive |
| UTY | 1 | -0.0689 | 2.48 | 4.45 | inactive |
| UTY | 2 | -0.429 | -0.0522 | 4.82 | inactive |
| UTY | 3 | 0.0297 | 3.18 | 4.26 | inactive |
| LEPROT | 1 | 0.0739 | 3.49 | 5.14 | inactive |
| LEPROT | 2 | -0.76 | -2.38 | 3.36 | inactive |
| LEPROT | 3 | -1.38 | -6.75 | 2.89 | inactive |
| TRIM38 | 1 | 3.08 | 24.6 | 16.4 | inactive |
| TRIM38 | 2 | -0.225 | 1.38 | 4.29 | inactive |
| TRIM38 | 3 | -0.893 | -3.31 | 5.17 | inactive |
| KNL1 | 1 | 7.2 | 53.6 | 25.5 | active |
| KNL1 | 2 | 2.35 | 19.5 | 13.8 | inactive |
| KNL1 | 3 | 5.14 | 39.1 | 15.4 | active |

4 entries from above, set out differently.
{"gene": "DLK2", "reagent no.": 1, "G2 robust z-score": 2.53, "G2 cells, % of GMNN control": 20.8, "raw share of cells in G2 (%)": 10.2, "outcome": "inactive"}
{"gene": "DLK2", "reagent no.": 2, "G2 robust z-score": -0.435, "G2 cells, % of GMNN control": -0.0953, "raw share of cells in G2 (%)": 3.13, "outcome": "inactive"}
{"gene": "DLK2", "reagent no.": 3, "G2 robust z-score": 0.0323, "G2 cells, % of GMNN control": 3.19, "raw share of cells in G2 (%)": 4.65, "outcome": "inactive"}
{"gene": "PCK1", "reagent no.": 1, "G2 robust z-score": 0.0105, "G2 cells, % of GMNN control": 3.04, "raw share of cells in G2 (%)": 4.24, "outcome": "inactive"}
